Holding throughout (assay): co-IP; cells expressing the constructs lysed in IP lysis buffer (50 mM Tris-HCl pH 7.6, 150 mM NaCl, 0.7% Triton X-100, phosphatase and protease inhibitors); lysates incubated with the indicated antibodies and protein A-Sepharose, or anti-FLAG-M2 affinity gel or anti-HA agarose beads, 8–12 h; beads washed 5 times; immunoblot
(In general: In western blotting, separated proteins are transferred to a membrane and probed.)

Sequences of proteins named here, by UniProt entry; tags and fusion partners are left off. A change or cut given only in a name is not applied to a line headed by its entry. A line that says so, or that is headed by a name, gives the form on record, which may keep a tag or linker. Residues count along the entry.
RNF43(WT), human ring finger protein 43, HA-tagged (Q68DV7, residues 24-783): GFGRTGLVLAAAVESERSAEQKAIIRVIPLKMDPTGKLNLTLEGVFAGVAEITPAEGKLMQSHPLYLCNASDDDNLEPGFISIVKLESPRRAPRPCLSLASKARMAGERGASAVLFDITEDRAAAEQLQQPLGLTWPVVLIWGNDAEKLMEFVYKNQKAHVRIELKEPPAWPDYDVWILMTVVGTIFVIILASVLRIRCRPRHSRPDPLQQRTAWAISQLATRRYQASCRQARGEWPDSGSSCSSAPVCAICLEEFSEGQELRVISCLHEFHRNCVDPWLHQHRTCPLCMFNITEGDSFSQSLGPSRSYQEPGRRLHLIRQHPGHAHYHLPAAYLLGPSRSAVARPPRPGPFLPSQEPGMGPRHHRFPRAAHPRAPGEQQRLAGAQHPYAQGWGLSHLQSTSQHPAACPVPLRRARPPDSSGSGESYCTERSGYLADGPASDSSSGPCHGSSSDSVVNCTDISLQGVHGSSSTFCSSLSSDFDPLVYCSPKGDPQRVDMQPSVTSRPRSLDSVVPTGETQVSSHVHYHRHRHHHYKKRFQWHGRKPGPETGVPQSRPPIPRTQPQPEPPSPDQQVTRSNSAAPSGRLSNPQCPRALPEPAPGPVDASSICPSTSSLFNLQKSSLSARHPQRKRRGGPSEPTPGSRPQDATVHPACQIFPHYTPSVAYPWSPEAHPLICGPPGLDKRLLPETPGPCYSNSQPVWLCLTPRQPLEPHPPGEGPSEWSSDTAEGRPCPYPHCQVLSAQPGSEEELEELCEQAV
RNF43(3SA), human RNF43 S474–476A phosphoresistant mutant, HA-tagged (Q68DV7-1, form named): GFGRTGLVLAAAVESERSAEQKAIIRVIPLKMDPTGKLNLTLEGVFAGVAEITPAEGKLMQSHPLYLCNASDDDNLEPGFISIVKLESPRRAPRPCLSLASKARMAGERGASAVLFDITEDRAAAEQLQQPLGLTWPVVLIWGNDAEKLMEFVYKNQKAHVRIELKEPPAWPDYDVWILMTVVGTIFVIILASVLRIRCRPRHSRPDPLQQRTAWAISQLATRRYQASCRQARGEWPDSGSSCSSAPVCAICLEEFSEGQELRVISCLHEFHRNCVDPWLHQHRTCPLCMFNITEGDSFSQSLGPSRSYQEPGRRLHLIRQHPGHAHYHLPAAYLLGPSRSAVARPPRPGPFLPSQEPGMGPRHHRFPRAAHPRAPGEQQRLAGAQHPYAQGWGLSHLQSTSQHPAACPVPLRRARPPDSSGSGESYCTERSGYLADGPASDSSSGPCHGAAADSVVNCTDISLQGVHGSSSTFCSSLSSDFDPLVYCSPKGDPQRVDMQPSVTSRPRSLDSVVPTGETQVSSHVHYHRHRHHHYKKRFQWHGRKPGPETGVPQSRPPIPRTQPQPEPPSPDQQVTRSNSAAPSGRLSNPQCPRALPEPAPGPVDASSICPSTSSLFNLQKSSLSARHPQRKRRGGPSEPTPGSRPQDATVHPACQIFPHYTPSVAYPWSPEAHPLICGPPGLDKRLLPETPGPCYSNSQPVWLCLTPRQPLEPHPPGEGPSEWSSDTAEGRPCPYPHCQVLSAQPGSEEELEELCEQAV
RNF43(3SD), human RNF43 S474–476D phosphomimetic mutant, HA-tagged (Q68DV7-1, form named): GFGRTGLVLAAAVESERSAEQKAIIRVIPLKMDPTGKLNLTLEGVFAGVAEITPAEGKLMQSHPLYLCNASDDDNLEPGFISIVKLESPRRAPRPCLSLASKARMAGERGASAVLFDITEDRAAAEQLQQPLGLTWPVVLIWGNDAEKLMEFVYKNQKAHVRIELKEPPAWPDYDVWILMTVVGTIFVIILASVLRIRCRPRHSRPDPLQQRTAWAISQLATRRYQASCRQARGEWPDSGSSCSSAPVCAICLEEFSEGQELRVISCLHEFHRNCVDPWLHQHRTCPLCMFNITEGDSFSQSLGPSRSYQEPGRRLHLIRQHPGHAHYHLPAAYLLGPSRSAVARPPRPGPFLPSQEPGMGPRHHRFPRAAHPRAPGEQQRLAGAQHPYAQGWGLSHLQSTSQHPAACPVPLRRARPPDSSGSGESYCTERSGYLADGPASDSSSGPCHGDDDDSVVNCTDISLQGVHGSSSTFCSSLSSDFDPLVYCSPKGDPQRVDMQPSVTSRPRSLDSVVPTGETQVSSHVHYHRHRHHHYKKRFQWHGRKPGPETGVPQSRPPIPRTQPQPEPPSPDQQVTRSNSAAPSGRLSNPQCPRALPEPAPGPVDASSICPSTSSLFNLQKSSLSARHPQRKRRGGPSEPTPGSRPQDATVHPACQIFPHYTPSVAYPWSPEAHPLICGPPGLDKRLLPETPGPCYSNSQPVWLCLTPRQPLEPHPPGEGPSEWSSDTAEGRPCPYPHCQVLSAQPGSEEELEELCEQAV
UniProt P61077: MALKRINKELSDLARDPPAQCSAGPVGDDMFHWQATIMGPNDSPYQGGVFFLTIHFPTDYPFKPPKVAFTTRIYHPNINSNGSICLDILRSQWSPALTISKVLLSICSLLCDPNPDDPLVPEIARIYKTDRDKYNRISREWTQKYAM
UniProt Q9EQD0, residues 27-585: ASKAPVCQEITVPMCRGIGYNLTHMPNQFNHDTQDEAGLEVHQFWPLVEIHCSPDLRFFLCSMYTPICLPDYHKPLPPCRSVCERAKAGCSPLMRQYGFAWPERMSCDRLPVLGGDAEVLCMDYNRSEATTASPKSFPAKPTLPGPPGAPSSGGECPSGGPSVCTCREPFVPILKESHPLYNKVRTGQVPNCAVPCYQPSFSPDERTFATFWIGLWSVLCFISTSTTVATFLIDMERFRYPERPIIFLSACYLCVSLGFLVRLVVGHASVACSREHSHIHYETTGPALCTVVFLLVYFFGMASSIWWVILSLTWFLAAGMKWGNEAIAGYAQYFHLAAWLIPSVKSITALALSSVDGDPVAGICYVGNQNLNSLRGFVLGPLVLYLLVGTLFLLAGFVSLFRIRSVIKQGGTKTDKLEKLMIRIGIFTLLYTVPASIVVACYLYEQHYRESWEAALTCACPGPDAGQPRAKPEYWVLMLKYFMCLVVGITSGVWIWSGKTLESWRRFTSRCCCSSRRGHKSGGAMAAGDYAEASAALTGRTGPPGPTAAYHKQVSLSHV
UniProt Q9ULT6, residues 56-936: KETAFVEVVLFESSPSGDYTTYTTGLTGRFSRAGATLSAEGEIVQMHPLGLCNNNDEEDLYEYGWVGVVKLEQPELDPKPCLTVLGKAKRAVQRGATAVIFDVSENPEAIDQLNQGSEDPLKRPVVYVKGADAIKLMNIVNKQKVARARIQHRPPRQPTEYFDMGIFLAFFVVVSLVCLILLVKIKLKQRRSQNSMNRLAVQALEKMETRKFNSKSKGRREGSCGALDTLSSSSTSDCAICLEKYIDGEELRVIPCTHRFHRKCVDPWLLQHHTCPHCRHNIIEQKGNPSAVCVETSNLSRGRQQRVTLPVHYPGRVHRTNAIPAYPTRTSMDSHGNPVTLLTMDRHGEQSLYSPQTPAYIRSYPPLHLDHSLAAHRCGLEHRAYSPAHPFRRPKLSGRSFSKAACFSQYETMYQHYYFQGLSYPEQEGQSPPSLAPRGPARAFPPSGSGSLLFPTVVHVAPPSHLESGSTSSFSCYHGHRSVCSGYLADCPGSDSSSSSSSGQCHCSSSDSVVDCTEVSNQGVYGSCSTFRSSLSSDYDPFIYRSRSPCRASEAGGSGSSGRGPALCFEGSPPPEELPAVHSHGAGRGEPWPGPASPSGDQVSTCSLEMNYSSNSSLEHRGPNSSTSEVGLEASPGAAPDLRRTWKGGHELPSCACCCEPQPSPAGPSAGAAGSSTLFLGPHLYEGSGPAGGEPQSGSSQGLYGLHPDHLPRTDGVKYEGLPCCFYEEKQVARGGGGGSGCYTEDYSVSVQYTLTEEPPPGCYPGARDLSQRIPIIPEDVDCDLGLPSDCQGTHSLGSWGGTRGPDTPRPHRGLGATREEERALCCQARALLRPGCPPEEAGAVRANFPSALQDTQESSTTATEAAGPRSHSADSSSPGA

Experiment [1] has as its target RNF43(3SA), human RNF43 S474–476A phosphoresistant mutant, HA-tagged (human) (UniProt Q68DV7).
Experiment [2] addresses RNF43(3SD), human RNF43 S474–476D phosphomimetic mutant, HA-tagged (human) (UniProt Q68DV7).
Experiment [3] deals with RNF43(WT), human ring finger protein 43, HA-tagged (human) (UniProt Q68DV7).

In publication PMC7492264 one finds binding data, which are given here for seven molecules.

Results are given in words; binding and its absence hold for the method and conditions named. Binding seen in cells or lysates may run through a third protein. Some binding calls cover weakened binding; strength is not graded here. Where a sequence is shown, tags or fusion partners need not be part of it.

Consider “E2 enzyme UbcH5C (from UniProt P61077 1-147)”, for which the binding result in experiment [1], in experiment [2] and in experiment [3] was “binds” each time.

“RNF43(WT), human ring finger protein 43, HA-tagged (from UniProt Q68DV7-1 24-783) (enzyme)”: the binding result in experiment [3] is “binds”.

For “FLAG-mFzd5, mouse Frizzled 5 (from UniProt Q9EQD0 27-585) (receptor)”, the binding result in experiment [1], in experiment [2] and in experiment [3] was “binds” in each case.

Regarding “ZNRF3, zinc and ring finger protein 3 (from UniProt Q9ULT6-1 56-936) (enzyme)”, the binding result in experiment [1], in experiment [2] and in experiment [3] was “binds” each time.

As for “RNF43(3SD), human RNF43 S474–476D phosphomimetic mutant, HA-tagged (from UniProt Q68DV7-1 24-783) (enzyme)”, in experiment [2], the binding result was “binds”.

On to “RNF43(3SA), human RNF43 S474–476A phosphoresistant mutant, HA-tagged (from UniProt Q68DV7-1 24-783) (enzyme)”, for which, in experiment [1], the binding entry is “binds”.

B1: myc-mDvl2, mouse Dishevelled 2 (protein, UniProt Q60838 1-736)
chain: MAGSSAGGGGVGETKVIYHLDEEETPYLVKIPVPAERITLGDFKSVLQRPAGAKYFFKSMDQDFGVVKEEISDDNARLPCFNGRVVSWLVSSDTPQPEVAPPAHESRTELVPPPPPLPPLPPERTSGIGDSRPPSFHPNVSSSHENLEPETETESVVSLRRDRPRRRDSSEHGAGGHRPGGPSRLERHLAGYESSSTLMTSELESTSLGDSDEDDTMSRFSSSTEQSSASRLLKRHRRRRKQRPPRMERTSSFSSVTDSTMSLNIITVTLNMEKYNFLGISIVGQSNERGDGGIYIGSIMKGGAVAADGRIEPGDMLLQVNDMNFENMSNDDAVRVLRDIVHKPGPIVLTVAKCWDPSPQAYFTLPRNEPIQPIDPAAWVSHSAALTGAFPAYPGSSSMSTITSGSSLPDGCEGRGLSVHMDMASVTKAMAAPESGLEVRDRMWLKITIPNAFLGSDVVDWLYHHVEGFPERREARKYASGLLKAGLIRHTVNKITFSEQCYYVFGDLSGGCESYLVNLSLNDNDGSSGASDQDTLAPLPGATPWPLLPTFSYQYPAPHPYSPQPPPYHELSSYTYGGGSASSQHSEGSRSSGSTRSDGGAGRTGRPEERAPESKSGSGSESELSSRGGSLRRGGEPGGTGDGGPPPSRGSTGAPPNLRALPGLHPYGAPSGMALPYNPMMVVMMPPPPPPVSTAVQPPGAPPVRDLGSVPPELTASRQSFHMAMGNPSEFFVDVM
For B1, the binding entry in experiment [1], in experiment [2] and in experiment [3] was “binds” in each case.
